Data as given in the supplement of paper PMC3334620.
The full ranking holds about 33,000 sequences; the median of “E-score (-0.5 to 0.5)” is about -0.0034, and the highest 2% start at about 0.25. The list shows a part of the results.

These sequences were tested against T1, Yap3 (UniProt P38749) (assay: PBM E-score (8-mer binding enrichment) (E-score (-0.5 to 0.5)); higher = stronger / more preferred TF binding). Settings: protein concentration: 100 nM; construct: GST-full length.
T1 sequence: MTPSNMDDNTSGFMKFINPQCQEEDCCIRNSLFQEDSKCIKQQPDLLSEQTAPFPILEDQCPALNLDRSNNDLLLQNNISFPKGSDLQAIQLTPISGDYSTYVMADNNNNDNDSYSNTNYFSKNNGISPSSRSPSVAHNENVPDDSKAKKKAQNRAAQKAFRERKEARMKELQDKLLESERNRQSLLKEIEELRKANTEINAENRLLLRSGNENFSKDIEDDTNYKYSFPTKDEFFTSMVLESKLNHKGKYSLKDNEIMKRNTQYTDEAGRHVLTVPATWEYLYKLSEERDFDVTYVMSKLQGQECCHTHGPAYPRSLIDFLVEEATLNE
Method: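 Universal 'all 10-mer' protein binding microarrays (Agilent AMADID 015681) probed with GST-tagged S. cerevisiae TFs (full-length or DBD) made by in vitro transcription/translation (PURExpress), about 100-200 nM. Bound TF was detected with fluorescent anti-GST. Each ungapped 8-mer (which stands for itself and its reverse complement) is scored by the PBM enrichment score (E-score), a modified Wilcoxon-Mann-Whitney statistic from -0.5 to +0.5, computed with the Universal PBM Analysis Suite. Scale: above 0.35 generally sequence-specific binding.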

For CGACTAAC, which “PBM E-score” value is on record?
Its value is 0.0844.

With CCTAGCTA as the sequence, how does the “PBM E-score” value read?
The value was -0.155.

GCATACTA was tested. Which “PBM E-score” value did it give?
Its value is -0.0542.

Which “PBM E-score” value does the source give for CCTACCAG here?
The value was -0.227.

How did the “PBM E-score” value turn out when TGAAATCA was run?
Its value is 0.0982.

With CACATTTA as the sequence, how does the “PBM E-score” value read?
The value was 0.156.

CAGAAAGA was tested. Which “PBM E-score” value did it give?
Its value is 0.0646.

How did the “PBM E-score” value turn out when CCGGGTCA was run?
Its value is -0.257.

CAGTTACA was tested. Which “PBM E-score” value did it give?
Its value is 0.0866.

AAAACATG was tested. Which “PBM E-score” value did it give?
Its value is 0.151.

ACGCTCAG was tested. Which “PBM E-score” value did it give?
Its value is -0.206.

How did the “PBM E-score” value turn out when GCAGGGCA was run?
Its value is -0.117.

How did the “PBM E-score” value turn out when AGCATAAT was run?
The value was 0.152.

How did the “PBM E-score” value turn out when GCCCTCTA was run?
Its value is -0.194.

For CTCTCGAC, which “PBM E-score” value is on record?
Its value is -0.141.

GCGATTCA was tested. Which “PBM E-score” value did it give?
The value was 0.0209.

For AGCTGATC, which “PBM E-score” value is on record?
The value was 0.0213.

For CGGTTAAG, which “PBM E-score” value is on record?
The value was -0.0153.

Which “PBM E-score” value does the source give for AAGGACCT here?
Its value is 0.0792.

Which “PBM E-score” value does the source give for AGTGAATC here?
The value was -0.0439.

CCGATCTC was tested. Which “PBM E-score” value did it give?
The value was -0.0464.

Which “PBM E-score” value does the source give for CGGTACAG here?
Its value is 0.0621.

With ACTCAGTC as the sequence, how does the “PBM E-score” value read?
The value was -0.0247.

How did the “PBM E-score” value turn out when GCCAGTCA was run?
The value was -0.114.

With CGATGACG as the sequence, how does the “PBM E-score” value read?
The value was -0.238.

For GCAAGAGC, which “PBM E-score” value is on record?
Its value is 0.0247.

For GAATCCCC, which “PBM E-score” value is on record?
Its value is -0.226.

Which “PBM E-score” value does the source give for CACATCCG here?
The value was 0.0282.

How did the “PBM E-score” value turn out when AGTCGAGA was run?
Its value is 0.0233.

Which “PBM E-score” value does the source give for TACGCAAA here?
Its value is -0.1.

For ATAGAACG, which “PBM E-score” value is on record?
The value was 0.17.

With ATCATCGA as the sequence, how does the “PBM E-score” value read?
Its value is 0.0689.

How did the “PBM E-score” value turn out when CAACGATC was run?
Its value is -0.0801.

How did the “PBM E-score” value turn out when TCAACGGA was run?
The value was 0.0124.

For TAGTGGCA, which “PBM E-score” value is on record?
The value was -0.0368.

AAAGGCAG was tested. Which “PBM E-score” value did it give?
The value was -0.0629.

With CACTGTGA as the sequence, how does the “PBM E-score” value read?
The value was -0.0193.

With CTCTTGAA as the sequence, how does the “PBM E-score” value read?
The value was -0.0535.

With AGTAGTAA as the sequence, how does the “PBM E-score” value read?
Its value is 0.0784.

Which “PBM E-score” value does the source give for CGACGGGA here?
The value was 0.0333.

With AGGGACCG as the sequence, how does the “PBM E-score” value read?
Its value is -0.221.

AGATATCG was tested. Which “PBM E-score” value did it give?
The value was -0.0884.

For ATGACTAG, which “PBM E-score” value is on record?
Its value is 0.07.

ATCCGGCA was tested. Which “PBM E-score” value did it give?
Its value is 0.0844.

With AGGAGCGA as the sequence, how does the “PBM E-score” value read?
Its value is -0.178.

Which “PBM E-score” value does the source give for ATTGGTCA here?
Its value is 0.166.

Which “PBM E-score” value does the source give for AATTAGAC here?
Its value is 0.209.

CTAGCGCC was tested. Which “PBM E-score” value did it give?
The value was -0.183.

CATGGAGG was tested. Which “PBM E-score” value did it give?
The value was -0.253.

For ACCACACG, which “PBM E-score” value is on record?
The value was 0.0216.

With GCCTGGTA as the sequence, how does the “PBM E-score” value read?
The value was 0.0208.

Which “PBM E-score” value does the source give for GGTCTAAC here?
The value was -0.068.

For CTTTCAGC, which “PBM E-score” value is on record?
The value was -0.103.

For AGTTTCTA, which “PBM E-score” value is on record?
The value was -0.0367.

How did the “PBM E-score” value turn out when GCCGAGAA was run?
Its value is 0.0617.

How did the “PBM E-score” value turn out when CTCCAAAA was run?
Its value is -0.104.

With CTTACCTA as the sequence, how does the “PBM E-score” value read?
The value was 0.115.

Which “PBM E-score” value does the source give for GACTCGAC here?
The value was -0.152.

With CAAGCACC as the sequence, how does the “PBM E-score” value read?
The value was -0.197.

AGTGCGCC was tested. Which “PBM E-score” value did it give?
Its value is -0.169.

Which “PBM E-score” value does the source give for TCGATTAA here?
The value was 0.308.

With AACCCCTT as the sequence, how does the “PBM E-score” value read?
Its value is -0.132.

With CGGCTATA as the sequence, how does the “PBM E-score” value read?
The value was 0.0193.

For ACATAACC, which “PBM E-score” value is on record?
The value was 0.0973.

ATTTGGTC was tested. Which “PBM E-score” value did it give?
Its value is 0.117.

With CCTTTTGA as the sequence, how does the “PBM E-score” value read?
The value was 0.0986.

CAGCGTGG was tested. Which “PBM E-score” value did it give?
The value was -0.117.

ACGCATCC was tested. Which “PBM E-score” value did it give?
Its value is -0.176.

Which “PBM E-score” value does the source give for GCTGTTAC here?
The value was -0.183.

For CACTACCA, which “PBM E-score” value is on record?
Its value is 0.0215.

Which “PBM E-score” value does the source give for AAGTGTGC here?
The value was 0.101.

Which “PBM E-score” value does the source give for GTAGAGAC here?
Its value is -0.183.

How did the “PBM E-score” value turn out when AACCAACT was run?
The value was 0.0968.

Which “PBM E-score” value does the source give for GATTAGAA here?
Its value is 0.0967.

Which “PBM E-score” value does the source give for CCGTTTAC here?
Its value is 0.136.

Which “PBM E-score” value does the source give for CATGTACA here?
The value was -0.00965.

How did the “PBM E-score” value turn out when CTATGTTA was run?
Its value is 0.174.

Which “PBM E-score” value does the source give for CTTCAGAC here?
Its value is -0.114.

With ACTATGCG as the sequence, how does the “PBM E-score” value read?
Its value is 0.0104.

For CACGGCTC, which “PBM E-score” value is on record?
The value was -0.0628.

Which “PBM E-score” value does the source give for GCGTACAA here?
Its value is -0.066.

Which “PBM E-score” value does the source give for ACTCAGCG here?
Its value is 0.0316.

Which “PBM E-score” value does the source give for GGGCAAGA here?
Its value is 0.116.

With AGCATGAA as the sequence, how does the “PBM E-score” value read?
The value was 0.0995.

Which “PBM E-score” value does the source give for ATGACCTC here?
The value was -0.118.

AATGGTCT was tested. Which “PBM E-score” value did it give?
Its value is -0.159.
